# Screening data

The results are deposited in PubChem (AID912; NCATS, 2007).

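A cell-based FRET test of anthrax lethal toxin entry, tracked through the 460 nm emission signal; the cell line is not named here. Each compound was tested as a concentration series from about 0.0005 to 40 µM. The number is the fitted AC50 of the 460 nm signal alone; lower values mean a more potent effect. A falling signal goes with compounds filed as inhibitors or cytotoxic, a rising one with activators or fluorescent compounds (inferred from the filed classes).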

Values are in µM. Common to all entries: measured here: 460 nm channel. This is a side read-out of the assay, for part of the compounds, not drawn at random. Potencies fitted to partial, single-point or poorly fitting curves are rough. The first word of each remark tells which way the curve ran; it can be opposite to the aim of the assay.

| # | Compound | AC50 (µM) | curve as filed |
|---|---|---|---|
| 1 | `CN(Cc1nc2ccccc2n1C)S(=O)(=O)c1ccc(F)cc1` | 12.59 | rising, single point |
| 2 | `O=C1C=C2C=C[C@H]3C[C@@]2(O1)[C@H]1CCCCN31` | 1.995 | rising, full curve, poor fit |
| 3 | `O=C1CC(O)(C(F)(F)F)Oc2c1ccc1ccccc21` (centres undefined) | 31.62 | falling, single point |
| 4 | `COC(=O)[C@@]1(Cc2ccc(OC)cc2)[C@H]2c3cc(C(=O)N4CCCC4)n(CCc4c[nH]c5ccc(O)cc45)c3C[C@H]2CN1C(=O)c1ccccc1` | 2.512 | rising, full curve, poor fit |
| 5 | `CCOc1ccc(C2C=C(c3ccc(C)cc3)Nc3nnnn32)cc1` (centres undefined) | 25.12 | rising, single point |
| 6 | `COC(=O)C(C)Sc1nnc(-c2ccncc2)o1` (centres undefined) | 3.981 | rising, full curve |
| 7 | `CC1(C)CN=C(NC2CCCCC2)S1` | 25.12 | falling, single point |
| 8 | `COc1ccc2nc(NC(=O)C3CCCN3S(=O)(=O)c3ccc(C)cc3)sc2c1` (centres undefined) | 12.59 | falling, single point |
| 9 | `COc1cc2nc(-c3cccs3)oc(=O)c2cc1OC` | 0.2512 | falling, full curve, poor fit |
| 10 | `CCn1c(SCc2nnc(-c3ccccc3)o2)nnc1-c1ccc(S(=O)(=O)N2CCCC2)cc1` | 10 | rising, single point |
| 11 | `Fc1ccc(OCc2nc(-c3ccc(Br)o3)no2)c(F)c1` | 10 | falling, partial curve |
| 12 | `O=S(=O)(c1ccccc1)N1CCC2(CCN(c3ccncc3)CC2)CC1` | 10 | falling, partial curve |
| 13 | `CC(=NCCC1=CCCCC1)c1c(O)[nH]c(=O)[nH]c1=O` | 0.5012 | falling, single point |
| 14 | `CCOC(=O)N1CCC(n2c(SCC(=O)Nc3ccccc3OC)nc3ccccc3c2=O)CC1` | 19.95 | rising, single point |
| 15 | `O=C1CC(c2ccccc2)CC(O)=C1C=NCCN1CCN(C(=O)Cc2ccccc2)CC1` (centres undefined) | 12.59 | rising, single point |
| 16 | `CCOC(=O)N1CCN(c2c(-c3ccc(C)cc3)c(=O)c2=O)CC1` | 0.5012 | falling, partial curve, poor fit |
| 17 | `COc1ccc(CNc2cc(-c3cccc(C#N)c3)ncn2)c(OC)c1` | 12.59 | falling, single point |
| 18 | `O=C(CN1CCN(c2nc(-c3ccccc3)cs2)CC1)Nc1ccc2c(c1)OCO2` | 0.631 | falling, full curve, poor fit |
| 19 | `Cc1cc(C(=O)OCn2nnc3ccccc3c2=O)c(C)n1-c1ccccc1` | 10 | falling, partial curve |
| 20 | `CCCc1c(O)nc(SCCN(CC)CC)n(C(=O)c2ccccc2)c1=O` | 3.162 | rising, partial curve |
| 21 | `COc1ccc(N2C(=NC(C)=O)SC3CS(=O)(=O)CC32)cc1OC` (centres undefined) | 0.631 | falling, single point |
| 22 | `O=c1cccc2n1C[C@@H]1C[C@H]2CN2CCCC[C@H]12` | 12.59 | falling, partial curve |
| 23 | `O=C(O)CCc1ccc(-c2cccs2)n1CC1CCCO1` (centres undefined) | 31.62 | falling, single point |
| 24 | `Cc1c(-c2ccc(Cl)cc2)noc1C1CCN(CCc2ccccc2)CC1` | 25.12 | falling, partial curve |
| 25 | `O=C(CCN1CCN(Cc2ccccc2)CC1)Nc1cccc(Cl)c1` | 12.59 | falling, single point |
| 26 | `CN1CC=C2C(C#N)=C(N)C(C#N)(C#N)C(c3cccc(Cl)c3Cl)C2C1` (centres undefined) | 10 | rising, partial curve |
| 27 | `Cc1cc(C)c(C)c(S(=O)(=O)NCc2cccnc2)c1C` | 3.162 | falling, partial curve, poor fit |
| 28 | `CCn1c(SCC(=O)NCCc2ccccc2)nnc1-c1cccs1` | 10 | rising, single point |
| 29 | `COc1cccc(C2C(C#N)=C(N)OC3=C2C(=O)CC(c2ccco2)C3)c1OCc1ccc(F)cc1` (centres undefined) | 10 | falling, partial curve |
| 30 | `NC(=Nc1ccccc1)NC(=O)c1nc(Cl)c(N)nc1N` | 5.012 | rising, full curve |
| 31 | `COc1ccc(NS(=O)(=O)c2cccc(-c3nnc4n3CCCCC4)c2)cc1` | 6.31 | rising, full curve, poor fit |
| 32 | `COC(=O)Oc1nsnc1N1CCOCC1` | 25.12 | falling, single point |
| 33 | `Cn1c(=O)c2c(nc(CN3CCN(c4ccccc4)CC3)n2Cc2ccccc2Cl)n(C)c1=O` | 0.3981 | rising, full curve, poor fit |
| 34 | `COc1ccccc1N1CCN(Cc2cc(Br)c(O)c3ncccc23)CC1` | 15.85 | falling, partial curve |
| 35 | `COc1ccc(Oc2ccc(S(=O)(=O)N3CCCCC3)cc2S(=O)(=O)N2CCCCC2)cc1` | 3.162 | falling, single point |
| 36 | `COc1ccc(S(=O)(=O)Nc2cc(C(=O)NCCC(C)C)ccc2N2CCOCC2)cc1` | 0.01995 | rising, full curve, poor fit |
| 37 | `CCCCCCCCCC(=O)O[C@H](CC(=O)O)C[N+](C)(C)C` | 31.62 | falling, single point |
| 38 | `O=C(CSc1nnc(CCc2nc3ccccc3[nH]2)n1-c1ccccc1)NCc1ccco1` | 5.012 | rising, partial curve, poor fit |
| 39 | `COc1ccc(CCN2CC(C#N)=C3c4cc(OC)c(OC)cc4CCN3C2)cc1OC` | 25.12 | falling, partial curve |
| 40 | `COc1ccc(C2CC(=O)N3CN(Cc4ccco4)CSC3=C2C#N)cc1` (centres undefined) | 3.162 | falling, single point |
| 41 | `COc1ccc(/C=C/NC(=O)c2ccc(OC)cc2)cc1` | 1 | rising, single point |
| 42 | `CC(=O)Oc1ccccc1C(=O)Nc1ncc([N+](=O)[O-])s1` | 1.995 | falling, full curve |
| 43 | `O=C(NCc1ccccc1)[C@H]1C[C@@H]1[C@H](NP(=O)(c1ccccc1)c1ccccc1)c1ccccc1` | 10 | rising, partial curve |
| 44 | `O=C(Nc1nc(-c2cc3ccccc3oc2=O)cs1)c1ccco1` | 12.59 | rising, partial curve |
| 45 | `O=C(CCc1ccc(S(=O)(=O)N2CCOCC2)cc1)Nc1cc(Cl)ccc1N1CCOCC1` | 12.59 | rising, single point |
| 46 | `Cc1cccnc1NC(=O)COc1ccc2oc3c(c2c1)CCCC3` | 0.2512 | falling, full curve, poor fit |
| 47 | `COc1cccc(Cn2c(=O)c(-c3cccs3)nc3cnc(OCc4ccccc4)nc32)c1` | 6.31 | rising, partial curve |
| 48 | `Cn1c(=O)[nH]c(=O)c2c1nc(SCC(=O)O)n2CCc1ccccc1` | 0.7943 | rising, full curve, poor fit |
| 49 | `COc1ccc(C(c2nnnn2Cc2ccc(F)cc2)N2CCN(c3ccc(OC)cc3)CC2)cc1` (centres undefined) | 12.59 | falling, partial curve |
| 50 | `O=c1sc(N2CCN(c3ccccc3F)CC2)nc2ccsc12` | 1.259 | falling, full curve |
| 51 | `CNC(=O)[C@H]1O[C@H](n2cnc3c(NCc4cccc(I)c4)nc(Cl)nc32)[C@@H](O)[C@@H]1O` | 31.62 | falling, single point |
| 52 | `CC(N)=NCCCC[C@H](N)C(=O)O` | 12.59 | falling, single point |
| 53 | `COC(=O)c1ccc(C(/C=C/[C@@H](C)C(=O)N(C)C)NC(=O)OCc2ccccc2)cc1` (some centres undefined) | 7.943 | rising, partial curve, poor fit |
| 54 | `CC1=CC(=O)C2=C(C)CC[C@@H]3[C@H](OC(=O)[C@H]3C)[C@H]12` | 12.59 | falling, partial curve, poor fit |
| 55 | `O=c1sc(Nc2ccccc2)nc2ccsc12` | 31.62 | rising, single point |
| 56 | `Cc1ccccc1CNc1ncnc2c1ncn2[C@@H]1O[C@@H](CO)[C@H](O)[C@@H]1O` | 3.981 | rising, full curve |
| 57 | `Cc1ccc(CN2C(=O)C(C)(C)Oc3ccc(C(=O)N4CCCCC4)cc32)cc1` | 31.62 | rising, single point |
| 58 | `COCCn1c(=O)c(-c2ccc(Cl)cc2)nc2cnc(Nc3ccccc3)nc21` | 12.59 | rising, partial curve |
| 59 | `c1nc(NC2CC2)c2cc(-c3ccoc3)ccc2n1` | 1 | falling, single point |
| 60 | `COc1ccc(NC(=O)c2ccco2)cc1NC(=O)c1cc2ccccc2o1` | 12.59 | falling, single point |

4 of the entries, repeated:

Result for COc1ccc(CCN2CC(C#N)=C3c4cc(OC)c(OC)cc4CCN3C2)cc1OC was AC50 25.12 µM (falling, partial curve).
Result for O=C(O)CCc1ccc(-c2cccs2)n1CC1CCCO1 (centres undefined) was AC50 31.62 µM (falling, single point).
Result for CCOC(=O)N1CCC(n2c(SCC(=O)Nc3ccccc3OC)nc3ccccc3c2=O)CC1 was AC50 19.95 µM (rising, single point).
Result for COc1ccc(S(=O)(=O)Nc2cc(C(=O)NCCC(C)C)ccc2N2CCOCC2)cc1 was AC50 0.01995 µM (rising, full curve, poor fit).